These are yes or no findings as the source states them, for the method shown. Binding seen in cells or lysates may run through a third protein. Here binding means that the protein was enriched with, or labelled near, the bait; the list need not be complete.
B1: CTNNA2 (protein, UniProt Q61301 1-953)
chain: MTSATSPIILKWDPKSLEIRTLTVERLLEPLVTQVTTLVNTSNKGPSGKKKGRSKKAHVLAASVEQATQNFLEKGEQIAKESQDLKEELVAAVEDVRKQGETMRIASSEFADDPCSSVKRGTMVRAARALLSAVTRLLILADMADVMRLLSHLKIVEEALEAVKNATNEQDLANRFKEFGKEMVKLNYVAARRQQELKDPHCRDEMAAARGALKKNATMLYTASQAFLRHPDVAATRANRDYVFKQVQEAIAGISSAAQATSPTDEAKGHTGIGELAAALNEFDNKIILDPMTFSEARFRPSLEERLESIISGAALMADSSCTRDDRRERIVAECNAVRQALQDLLSEYMNNTGRKEKGDPLNIAIDKMTKKTRDLRRQLRKAVMDHISDSFLETNVPLLVLIEAAKSGNEKEVKEYAQVFREHANKLVEVANLACSISNNEEGVKLVRMAATQIDSLCPQVINAALTLAARPQSKVAQDNMDVFKDQWEKQVRVLTEAVDDITSVDDFLSVSENHILEDVNKCVIALQEGDVDTLDRTAGAIRGRAARVIHIINAEMENYEAGVYTEKVLEATKLLSETVMPRFAEQVEVAIEALSANVPQPFEENEFIDASRLVYDGVRDIRKAVLMIRTPEELEDDSDFEQEDYDVRSRTSVQTEDDQLIAGQSARAIMAQLPQEEKAKIAEQVEIFHQEKSKLDAEVAKWDDSGNDIIVLAKQMCMIMMEMTDFTRGKGPLKNTSDVINAAKKIAEAGSRMDKLARAVADQCPDSACKQDLLAYLQRIALYCHQLNICSKVKAEVQNLGGELIVSGTGVQSTFTTFYEVDCDVIDGGRASQLSTHLPTCAEGAPIGSGSSDSSMLDSATSLIQAAKNLMNAVVLTVKASYVASTKYQKVYGTAAVNSPVVSWKMKAPEKKPLVKREKPEEFQTRVRRGSQKKHISPVQALSEFKAMDSF
B2: GIT1 (protein, UniProt Q68FF6 1-770)
chain: MSRKGPRAEVCADCSAPDPGWASISRGVLVCDECCSVHRSLGRHISIVKHLRHSAWPPTLLQMVHTLASNGANSIWEHSLLDPAQVQSGRRKANPQDKVHPIKSEFIRAKYQMLAFVHKLPCRDDDGVTAKDLSKQLHSSVRTGNLETCLRLLSLGAQANFFHPEKGTTPLHVAAKAGQTLQAELLVVYGADPGSPDVNGRTPIDYARQAGHHELAERLVECQYELTDRLAFYLCGRKPDHKNGHYIIPQMADRSRQKCMSQSLDLSELAKAAKKKLQALSNRLFEELAMDVYDEVDRRENDAVWLATQNHSTLVTERSAVPFLPVNPEYSATRNQGRQKLARFNAREFATLIIDILSEAKRRQQGKSLSSPTDNLELSARSQSELDDQHDYDSVASDEDTDQEPLPSAGATRNNRARSMDSSDLSDGAVTLQEYLELKKALATSEAKVQQLMKVNSSLSDELRRLQREIHKLQAENLQLRQPPGPVPPPSLPSERAEHTLMGPGGSTHRRDRQAFSMYEPGSALKPFGGTPGDELATRLQPFHSTELEDDAIYSVHVPAGLYRIRKGVSASSVPFTPSSPLLSCSQEGSRHASKLSRHGSGADSDYENTQSGDPLLGLEGKRFLELSKEDELHPELESLDGDLDPGLPSTEDVILKTEQVTKNIQELLRAAQEFKHDSFVPCSEKIHLAVTEMASLFPKRPALEPVRSSLRLLNASAYRLQSECRKTVPPEPGAPVDFQLLTQQVIQCAYDIAKAAKQLVTITTREKKQ
B3: GIT2 (protein, UniProt Q9JLQ2 1-708)
chain: MSKRLRSSDVCADCNGPDPSWASVNRGTFICDECCSVHRSLGRHISQVRHLKHTAWPPTLLQMVETLYNNGANSIWEHSLLDPASIMSGRRKANPQDKVHPNKAEFIRAKYQMLAFVHRLPCREDDSVTAKDLSKQLHSSVRTGNLETCLRLLSLGAQANFFHPEKGSTPLHVASKAGQILQAELLAVYGADPGTQDSSGKTPVDYARQGGHHELAERLIEIQYELTDRLAFYLCGRKPDHKSGQHFLIPQRADSLDLSELAKAAKKKLQSLSNHLFEELAMDVYDEVDRRETDAVWLATQNHSTLVTETTVVPFLPVNPEYSSTRNQGRQKLARFNAHEFATLVIDILSDAKRRQQGSPLSRSKDNVELILRTVSTQHSTESQDNDQPDYDSVASDEDTDVETRASKANRQKLQTLQSENSSLRRQATASACQVQTGSDHKDTASHSSLKRRPSARGSRPMSMYETGSGQKPYLPMGEASHPEESRTRLQPFPTHIGRSALVTSSSSLPSFPSTLSWSRDESARRASRLEKQNSTPESDYDNTACDPEPDDTGSTRKGRQRSMLWQGDGLLPDTAEPHSVPSPTLPSTEDVIRKTEQITKNIQELLRAAQENKHDSYIPCSERIHVAVTEMAALFPKKPKSDTVRTSLRLLTSSAYRLQSECRKALPGDSSLPTDVQLVTQQVIQCAYDIAKAAKQLVTITTKENSS
B4: GPAM (protein, UniProt Q61586 1-827)
chain: MEESSVTVGTIDVSYLPSSSEYSLGRCKHTSEDWVDCGFKPTFFRSATLKWKESLMSRKRPFVGRCCYSCTPQSWERFFNPSIPSLGLRNVIYINETHTRHRGWLARRLSYILFVQERDVHKGMFATSVTENVLSSSRVQEAIAEVAAELNPDGSAQQQSKAIQKVKRKARKILQEMVATVSPGMIRLTGWVLLKLFNSFFWNIQIHKGQLEMVKAATETNLPLLFLPVHRSHIDYLLLTFILFCHNIKAPYIASGNNLNIPVFSTLIHKLGGFFIRRRLDETPDGRKDILYRALLHGHVVELLRQQQFLEIFLEGTRSRSGKTSCARAGLLSVVVDTLSSNTIPDILVIPVGISYDRIIEGHYNGEQLGKPKKNESLWSVARGVIRMLRKNYGYVRVDFAQPFSLKEYLEGQSQKPVSAPLSLEQALLPAILPSRPNDVADEHQDLSSNESRNPADEAFRRRLIANLAEHILFTASKSCAIMSTHIVACLLLYRHRQGIHLSTLVEDFFVMKEEVLARDFDLGFSGNSEDVVMHAIQLLGNCVTITHTSRKDEFFITPSTTVPSVFELNFYSNGVLHVFIMEAIIACSIYAVLNKRCSGGSAGGLGNLISQEQLVRKAASLCYLLSNEGTISLPCQTFYQVCHETVGKFIQYGILTVAEQDDQEDVSPGLAEQQWDKKLPELNWRSDEEDEDSDFGEEQRDCYLKVSQSKEHQQFITFLQRLLGPLLEAYSSAAIFVHNFSGPVPESEYLQKLHRYLITRTERNVAVYAESATYCLVKNAVKMFKDIGVFKETKQKRVSVLELSSTFLPQCNRQKLLEYILSFVVL
B5: GTPBP1 (protein, UniProt O08582 1-668)
chain: MAAERSRSPVDSPVPASMFAPEPSSPGAARAAAAAARLHGGFDSDCSEDGEALNGEPELDLTSKLVLVSPTSEQYDSLLRQMWERMDEGCGETIYVIGQGSDGTEYGLSEADMEASYATVKSMAEQIEADVILLRERQEAGGRVRDYLVRKRVGDNDFLEVRVAVVGNVDAGKSTLLGVLTHGELDNGRGFARQKLFRHKHEIESGRTSSVGNDILGFDSEGNVVNKPDSHGGSLEWTKICEKSSKVITFIDLAGHEKYLKTTVFGMTGHLPDFCMLMVGSNAGIVGMTKEHLGLALALNVPVFVVVTKIDMCPANILQETLKLLQRLLKSPGCRKIPVLVQSKDDVIVTASNFSSERMCPIFQISNVTGENLDLLKMFLNLLSPRTSYREEEPAEFQIDDTYSVPGVGTVVSGTTLRGLIKLNDTLLLGPDPLGNFLSIAVKSIHRKRMPVKEVRGGQTASFALKKIKRSSIRKGMVMVSPRLNPQASWEFEAEILVLHHPTTISPRYQAMVHCGSIRQTATILSMDKDCLRTGDKATVHFRFIKTPEYLHIDQRLVFREGRTKAVGTITKLLQTTNNSPMNSKPQQIKMQSTKKGPLSKREEGGPCGVPAAGGPPTGDEASSLGTAQAASTSGLQPQPKPSSGGRRRGGQRHKVKSGACVTPASGC
B6: HNRPLL (protein, UniProt Q921F4 1-591)
chain: MSSSSSSSPKEETYEEDREFESQAKRLKTEEGEIVYSAEESENRQEATPQAGSDSDSGGGDGGDGDGGSGGGGDGEEGEGGEEGDEGDGDEGGSGGDEGGSGGGPRSMPLSTEGGGSHHKVSVSPVVHVRGLCESVVEADLVEALEKFGTICYVMMMPFKRQALVEFENIDSAKECVTFAADVPVYIAGQQAFFNYSTSKRITRPGNTDDPSGGNKVLLLSIQNPLYPITVDVLYTVCNPVGKVQRIVIFKRNGIQAMVEFESVLCAQKAKAALNGADIYAGCCTLKIEYARPTRLNVIRNDNDSWDYTKPYLGRRDRGKGRQRQAILGDHPSSFRHDGYGSHGPLLPLPSRYRMGSRDTPELVAYPLPQASSSYMHGGSPSGSVVMVSGLHQLKMNCSRVFNLFCLYGNIEKVKFMKTIPGTALVEMGDEYAVERAVTHLNNVKLFGKRLNVCVSKQHSVVPSQIFELEDGTSSYKDFAMSKNNRFTSAGQASKNIIQPPSCVLHYYNVPLCVTEETFTKLCNDHEVLPFIKYKVFDAKASAKTLSGLLEWKCKTDAVEALTALNHYQIRVPNGSNPYTLKLCFSTSSHL

Sequences of proteins named here, by UniProt entry; tags and fusion partners are left off.
UniProt P80206: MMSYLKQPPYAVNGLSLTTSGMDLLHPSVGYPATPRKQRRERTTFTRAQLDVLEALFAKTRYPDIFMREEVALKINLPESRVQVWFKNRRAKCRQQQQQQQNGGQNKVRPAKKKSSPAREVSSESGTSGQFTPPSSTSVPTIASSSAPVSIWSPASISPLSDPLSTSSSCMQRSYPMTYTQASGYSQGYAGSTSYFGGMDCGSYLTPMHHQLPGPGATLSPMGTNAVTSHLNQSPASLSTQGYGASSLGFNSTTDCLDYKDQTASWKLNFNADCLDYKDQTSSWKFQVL
UniProt P26231: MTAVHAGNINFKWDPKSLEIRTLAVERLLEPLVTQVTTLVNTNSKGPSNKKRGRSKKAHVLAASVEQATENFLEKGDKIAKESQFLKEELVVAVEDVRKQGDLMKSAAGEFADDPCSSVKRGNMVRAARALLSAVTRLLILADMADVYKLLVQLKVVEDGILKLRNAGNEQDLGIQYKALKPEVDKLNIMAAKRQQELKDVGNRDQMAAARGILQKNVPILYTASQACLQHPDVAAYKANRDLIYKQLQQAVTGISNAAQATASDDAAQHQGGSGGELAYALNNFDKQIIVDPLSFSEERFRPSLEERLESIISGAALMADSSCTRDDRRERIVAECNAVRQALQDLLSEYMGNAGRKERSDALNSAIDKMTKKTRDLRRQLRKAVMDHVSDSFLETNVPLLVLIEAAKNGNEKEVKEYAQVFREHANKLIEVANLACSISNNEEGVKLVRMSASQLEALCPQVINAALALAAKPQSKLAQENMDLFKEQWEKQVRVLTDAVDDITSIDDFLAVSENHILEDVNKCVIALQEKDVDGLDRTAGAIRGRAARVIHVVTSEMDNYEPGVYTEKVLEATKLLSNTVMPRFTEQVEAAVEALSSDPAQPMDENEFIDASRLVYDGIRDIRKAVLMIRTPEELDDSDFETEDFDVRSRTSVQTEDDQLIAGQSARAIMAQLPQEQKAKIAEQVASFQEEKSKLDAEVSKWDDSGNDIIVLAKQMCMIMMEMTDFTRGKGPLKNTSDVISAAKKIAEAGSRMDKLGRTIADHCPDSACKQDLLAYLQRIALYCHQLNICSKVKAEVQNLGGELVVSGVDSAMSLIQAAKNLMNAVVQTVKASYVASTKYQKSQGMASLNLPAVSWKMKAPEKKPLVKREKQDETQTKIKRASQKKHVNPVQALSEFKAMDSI
UniProt Q6P542: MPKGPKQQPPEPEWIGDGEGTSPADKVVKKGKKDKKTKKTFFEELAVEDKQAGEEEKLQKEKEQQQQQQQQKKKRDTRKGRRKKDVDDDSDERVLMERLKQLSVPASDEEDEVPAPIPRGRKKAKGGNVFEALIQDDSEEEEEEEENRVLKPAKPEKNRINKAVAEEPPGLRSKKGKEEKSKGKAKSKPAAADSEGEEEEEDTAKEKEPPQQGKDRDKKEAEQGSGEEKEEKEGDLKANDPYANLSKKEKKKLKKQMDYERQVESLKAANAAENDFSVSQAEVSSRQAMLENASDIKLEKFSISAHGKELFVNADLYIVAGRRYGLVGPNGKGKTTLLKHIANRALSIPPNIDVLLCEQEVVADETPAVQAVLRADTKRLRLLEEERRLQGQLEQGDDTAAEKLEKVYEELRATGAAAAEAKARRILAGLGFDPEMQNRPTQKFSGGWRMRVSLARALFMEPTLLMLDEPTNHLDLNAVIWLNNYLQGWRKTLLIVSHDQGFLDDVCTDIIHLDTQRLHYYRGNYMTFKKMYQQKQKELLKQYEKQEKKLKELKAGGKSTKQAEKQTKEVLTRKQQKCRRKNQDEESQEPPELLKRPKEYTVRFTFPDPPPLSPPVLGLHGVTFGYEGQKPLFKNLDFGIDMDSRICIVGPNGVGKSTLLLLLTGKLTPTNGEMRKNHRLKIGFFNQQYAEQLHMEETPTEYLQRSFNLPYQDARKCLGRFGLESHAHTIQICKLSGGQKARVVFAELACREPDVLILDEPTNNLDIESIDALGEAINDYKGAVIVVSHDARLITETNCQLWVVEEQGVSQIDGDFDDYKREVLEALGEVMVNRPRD
UniProt Q9EPK8: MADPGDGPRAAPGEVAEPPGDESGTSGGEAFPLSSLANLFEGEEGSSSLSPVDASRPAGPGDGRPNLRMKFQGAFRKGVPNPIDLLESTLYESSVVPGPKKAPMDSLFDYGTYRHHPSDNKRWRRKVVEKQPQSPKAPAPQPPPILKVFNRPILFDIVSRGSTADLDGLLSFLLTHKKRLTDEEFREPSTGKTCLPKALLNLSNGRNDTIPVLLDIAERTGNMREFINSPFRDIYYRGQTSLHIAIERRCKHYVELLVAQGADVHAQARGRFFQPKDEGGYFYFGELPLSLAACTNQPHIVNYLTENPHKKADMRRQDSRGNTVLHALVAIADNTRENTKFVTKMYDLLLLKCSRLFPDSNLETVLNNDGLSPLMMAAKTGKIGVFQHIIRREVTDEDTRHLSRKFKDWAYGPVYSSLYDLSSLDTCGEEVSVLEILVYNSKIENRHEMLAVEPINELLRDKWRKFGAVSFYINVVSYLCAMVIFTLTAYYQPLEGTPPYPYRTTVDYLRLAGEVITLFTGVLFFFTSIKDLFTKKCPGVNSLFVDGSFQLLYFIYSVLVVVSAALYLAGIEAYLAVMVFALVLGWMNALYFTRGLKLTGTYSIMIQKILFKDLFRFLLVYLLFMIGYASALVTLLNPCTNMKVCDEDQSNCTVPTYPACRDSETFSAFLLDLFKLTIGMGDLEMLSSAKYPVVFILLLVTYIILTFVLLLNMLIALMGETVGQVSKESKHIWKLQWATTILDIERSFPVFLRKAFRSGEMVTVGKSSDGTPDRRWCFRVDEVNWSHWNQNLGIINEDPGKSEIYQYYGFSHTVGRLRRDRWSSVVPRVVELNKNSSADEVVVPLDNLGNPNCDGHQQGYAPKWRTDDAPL
UniProt Q9QYR6: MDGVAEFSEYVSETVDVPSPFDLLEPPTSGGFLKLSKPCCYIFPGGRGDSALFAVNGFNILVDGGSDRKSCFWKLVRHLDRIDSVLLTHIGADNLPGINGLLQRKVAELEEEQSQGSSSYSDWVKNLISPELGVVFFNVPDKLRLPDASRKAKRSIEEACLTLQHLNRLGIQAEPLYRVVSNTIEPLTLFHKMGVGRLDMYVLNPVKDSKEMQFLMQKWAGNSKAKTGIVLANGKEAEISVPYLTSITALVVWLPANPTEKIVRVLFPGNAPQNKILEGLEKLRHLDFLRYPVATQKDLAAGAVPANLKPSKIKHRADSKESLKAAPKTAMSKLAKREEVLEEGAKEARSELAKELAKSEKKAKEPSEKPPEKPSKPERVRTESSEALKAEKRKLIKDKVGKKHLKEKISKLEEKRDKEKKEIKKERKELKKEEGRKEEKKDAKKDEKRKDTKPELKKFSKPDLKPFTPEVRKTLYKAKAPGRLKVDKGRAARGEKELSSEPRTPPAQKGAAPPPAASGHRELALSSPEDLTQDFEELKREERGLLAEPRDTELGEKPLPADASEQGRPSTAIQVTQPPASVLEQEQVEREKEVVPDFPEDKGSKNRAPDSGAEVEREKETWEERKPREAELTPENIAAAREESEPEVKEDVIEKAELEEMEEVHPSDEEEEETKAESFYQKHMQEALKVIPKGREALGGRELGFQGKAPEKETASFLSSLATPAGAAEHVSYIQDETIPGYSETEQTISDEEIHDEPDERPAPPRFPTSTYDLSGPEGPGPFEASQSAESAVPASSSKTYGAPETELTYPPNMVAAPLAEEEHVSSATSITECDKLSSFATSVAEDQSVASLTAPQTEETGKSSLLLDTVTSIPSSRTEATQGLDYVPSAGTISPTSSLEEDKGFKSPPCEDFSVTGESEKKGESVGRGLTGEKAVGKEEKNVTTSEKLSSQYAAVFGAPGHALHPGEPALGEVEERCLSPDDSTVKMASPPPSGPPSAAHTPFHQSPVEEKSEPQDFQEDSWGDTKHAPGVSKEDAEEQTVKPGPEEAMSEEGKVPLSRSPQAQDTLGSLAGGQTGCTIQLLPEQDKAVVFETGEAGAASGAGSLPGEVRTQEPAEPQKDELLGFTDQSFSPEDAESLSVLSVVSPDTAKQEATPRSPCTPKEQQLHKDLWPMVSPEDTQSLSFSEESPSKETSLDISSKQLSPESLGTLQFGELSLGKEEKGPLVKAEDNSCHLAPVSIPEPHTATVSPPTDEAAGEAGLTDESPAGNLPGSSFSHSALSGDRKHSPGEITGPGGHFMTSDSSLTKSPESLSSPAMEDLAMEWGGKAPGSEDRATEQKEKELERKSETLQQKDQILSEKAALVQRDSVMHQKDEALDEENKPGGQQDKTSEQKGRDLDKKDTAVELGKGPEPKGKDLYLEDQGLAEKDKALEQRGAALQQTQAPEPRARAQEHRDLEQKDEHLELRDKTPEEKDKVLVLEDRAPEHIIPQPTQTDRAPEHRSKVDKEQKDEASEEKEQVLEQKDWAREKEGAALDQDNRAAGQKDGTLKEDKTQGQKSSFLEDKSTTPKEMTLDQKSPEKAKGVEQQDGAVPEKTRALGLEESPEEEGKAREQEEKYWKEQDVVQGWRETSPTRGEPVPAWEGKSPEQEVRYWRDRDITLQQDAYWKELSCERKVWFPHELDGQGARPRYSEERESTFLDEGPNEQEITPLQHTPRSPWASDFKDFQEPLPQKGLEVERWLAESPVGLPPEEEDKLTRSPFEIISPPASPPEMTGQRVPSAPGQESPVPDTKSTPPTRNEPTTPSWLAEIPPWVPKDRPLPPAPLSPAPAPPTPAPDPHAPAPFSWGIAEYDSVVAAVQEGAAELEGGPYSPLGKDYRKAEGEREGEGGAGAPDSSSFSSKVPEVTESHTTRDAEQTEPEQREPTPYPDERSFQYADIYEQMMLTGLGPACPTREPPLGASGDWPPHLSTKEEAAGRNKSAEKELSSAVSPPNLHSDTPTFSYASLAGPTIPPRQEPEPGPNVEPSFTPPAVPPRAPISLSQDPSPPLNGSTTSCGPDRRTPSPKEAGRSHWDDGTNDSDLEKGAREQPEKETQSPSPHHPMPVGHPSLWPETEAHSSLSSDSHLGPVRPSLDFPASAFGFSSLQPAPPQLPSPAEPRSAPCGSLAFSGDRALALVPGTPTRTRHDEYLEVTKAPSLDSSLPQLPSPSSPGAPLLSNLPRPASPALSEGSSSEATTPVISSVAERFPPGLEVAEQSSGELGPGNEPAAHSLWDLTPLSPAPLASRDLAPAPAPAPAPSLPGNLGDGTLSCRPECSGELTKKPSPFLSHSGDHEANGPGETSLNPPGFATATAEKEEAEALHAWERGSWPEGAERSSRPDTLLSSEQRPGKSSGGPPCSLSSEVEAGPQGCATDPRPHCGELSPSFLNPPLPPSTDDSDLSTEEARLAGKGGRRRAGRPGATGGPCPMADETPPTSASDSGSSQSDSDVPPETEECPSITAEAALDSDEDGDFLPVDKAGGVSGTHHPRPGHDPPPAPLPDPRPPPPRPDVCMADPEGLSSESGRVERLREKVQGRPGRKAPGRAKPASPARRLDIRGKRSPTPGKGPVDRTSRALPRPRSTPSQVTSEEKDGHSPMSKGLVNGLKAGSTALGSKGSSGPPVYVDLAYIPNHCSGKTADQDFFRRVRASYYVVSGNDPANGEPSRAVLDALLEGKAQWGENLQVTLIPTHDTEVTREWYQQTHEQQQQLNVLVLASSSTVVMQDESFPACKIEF
UniProt Q3U9G9: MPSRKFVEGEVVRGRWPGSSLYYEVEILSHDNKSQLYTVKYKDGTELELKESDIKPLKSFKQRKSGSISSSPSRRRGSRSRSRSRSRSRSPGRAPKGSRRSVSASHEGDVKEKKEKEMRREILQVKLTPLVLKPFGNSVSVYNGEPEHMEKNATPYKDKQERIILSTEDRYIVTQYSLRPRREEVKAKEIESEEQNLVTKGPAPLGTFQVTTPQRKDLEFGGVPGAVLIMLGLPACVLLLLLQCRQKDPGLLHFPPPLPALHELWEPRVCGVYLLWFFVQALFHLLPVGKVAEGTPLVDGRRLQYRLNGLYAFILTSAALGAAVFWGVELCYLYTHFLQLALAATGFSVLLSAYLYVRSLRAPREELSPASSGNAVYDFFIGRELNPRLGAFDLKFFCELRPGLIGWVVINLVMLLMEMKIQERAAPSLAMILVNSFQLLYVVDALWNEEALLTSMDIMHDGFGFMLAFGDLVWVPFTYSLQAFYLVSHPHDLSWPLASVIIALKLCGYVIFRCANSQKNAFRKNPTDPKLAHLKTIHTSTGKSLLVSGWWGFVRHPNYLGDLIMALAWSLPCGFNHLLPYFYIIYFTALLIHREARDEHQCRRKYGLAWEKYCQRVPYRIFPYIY

These molecules were tested against OTX2 homeoprotein (mouse (endogenous in adult mouse brain tissue)) (UniProt P80206) (assay: affinity purification with mass spectrometry; anti-OTX2 (ab21990) coupled to magnetic beads, lysate of pooled LV and 4V choroid plexus from four 3-month-old mice; 100 mM Tris pH 7.5, 1 mM EDTA, 100 mM NaCl, 1% NP40, 1 mM MgCl2, benzonase; 4 °C overnight; IgG co-IP as control; nano-LC-MS/MS; N = 3).

binding, binds:
CTNNA1 (from UniProt P26231 1-906), RPL29 (from UniProt P47915 1-160), GJA1 (from UniProt P23242 1-382), CTNNB1 (from UniProt Q02248 1-781), CDH2 (from UniProt P15116), MSI2 (from UniProt Q920Q6 1-346), ZFR (from UniProt O88532 1-1074), MYCBP2 (from UniProt Q7TPH6 1-4749), FMNL3 (from UniProt Q6ZPF4 1-1028), ABCF1 (from UniProt Q6P542 1-837), PRRC2A (from UniProt Q7TSC1 1-2158), ERBIN (from UniProt Q80TH2 1-1402), EPB41L5 (from UniProt Q8BGS1 1-731), TRPV4 (from UniProt Q9EPK8 1-871), MAP1A (from UniProt Q9QYR6 1-2776), MCM3AP (from UniProt Q9WUU9 1-1971), DDX41 (from UniProt Q91VN6 1-622), SRRM2 (from UniProt Q8BTI8 1-2703), MAP4 (from UniProt P27546 1-1125), ILF2 (from UniProt Q9CXY6 1-390), APC (from UniProt Q61315 1-2845), KIFAP3 (from UniProt P70188 1-793), CDH3 (from UniProt P10287), LBR (from UniProt Q3U9G9 1-626), B1, B2, B3, B4, B5, B6
